PubChem BioAssay AID1508588 – Peter MacCallum Cancer Centre – 2020

- Test: 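Genome-wide search for knock-downs that heighten vemurafenib action in melanoma cells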 (primary screen)
- System: human WM266.4 melanoma cells (BRAF V600 mutant)
- Knock-down reagent: siRNA pool against human genes, 40 nM
- Time to read-out: 96 h from transfection to read-out
- Conditions: vemurafenib 300 nM (about IC25), added 48 h after transfection, for 48 h; comparison arm got DMSO vehicle only
- Read-out: 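Ratios to non-targeting siRNA for cell gain, counted as DAPI nuclei after minus before drug and averaged over two replicates, and for absorbance-read medium lactate per cell; both binned into fold-change classes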
- Scale: cell gain with vemurafenib: higher = more cell gain than with non-targeting siRNA; lactate per cell with vemurafenib: higher = more lactate made per cell
- Active means: 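a knock-down counts as enhancing when its fold-change classes with vehicle and with vemurafenib, taken together, show a stronger drug effect on cell gain or lactate per cell; exact class pairs not stated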
- Calls: active = enhances vemurafenib effect; inactive = no enhancement seen
The deposit covers about 18,000 reagents; below is a random part of them. In the full data, 790 (4.4%) are marked active. 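Calls rest on a combination of fold-change classes in drug and vehicle arms, not all shown here.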 Reagents against one gene are numbered here. Some reagents were tested in more than one well and are listed for each. No sequences are given here.

After knock-down of SDHAF4 (succinate dehydrogenase complex assembly factor 4), the record shows cell gain with vemurafenib 0.71; lactate per cell with vemurafenib 0.68; active.
With knock-down of MRPL33 (mitochondrial ribosomal protein L33) the results were cell gain with vemurafenib 0.86; lactate per cell with vemurafenib 1.42; inactive.
For LRRC37A (leucine rich repeat containing 37A) the deposit lists cell gain with vemurafenib 0.3; lactate per cell with vemurafenib 1.01; inactive.
Against FAM204A (family with sequence similarity 204 member A), the values are cell gain with vemurafenib 0.25; lactate per cell with vemurafenib 0.44; active.
Depletion of CD1E (CD1e molecule) gave: cell gain with vemurafenib 0.77; lactate per cell with vemurafenib 0.83; inactive.
For BORCS5 (BLOC-1 related complex subunit 5) the deposit lists cell gain with vemurafenib 0.59; lactate per cell with vemurafenib 0.64; inactive.
For EXT1 (exostosin glycosyltransferase 1), the entry reads cell gain with vemurafenib 0.71; lactate per cell with vemurafenib 1.04; inactive.
For TNFRSF10C (TNF receptor superfamily member 10c) the deposit lists cell gain with vemurafenib 0.79; lactate per cell with vemurafenib 0.28; inactive.
After knock-down of CYS1 (cystin 1), the record shows cell gain with vemurafenib 0.79; lactate per cell with vemurafenib 0.97; inactive.
CD22 (CD22 molecule) showed cell gain with vemurafenib 0.56; lactate per cell with vemurafenib 0.5; inactive.
MBD2 (methyl-CpG binding domain protein 2) gave cell gain with vemurafenib 0.12; lactate per cell with vemurafenib 3.06; inactive.
Against CKS2 (CDC28 protein kinase regulatory subunit 2), the entry reads cell gain with vemurafenib 1.06; lactate per cell with vemurafenib 0.96; inactive.
HMHB1 (histocompatibility minor HB-1) scored cell gain with vemurafenib 0.35; lactate per cell with vemurafenib 0.78; inactive.
With knock-down of ILK (integrin linked kinase) #1 the results were cell gain with vemurafenib 0.92; lactate per cell with vemurafenib 0.8; inactive.
With knock-down of ILK (integrin linked kinase) #2 the results were cell gain with vemurafenib 0.47; lactate per cell with vemurafenib 1.2; inactive.
For MECR (mitochondrial trans-2-enoyl-CoA reductase), the values are cell gain with vemurafenib 0.67; lactate per cell with vemurafenib 0.86; inactive.
For PGBD4 (piggyBac transposable element derived 4), the entry reads cell gain with vemurafenib 1; lactate per cell with vemurafenib 0.6; inactive.
Silencing of SH3TC1 (SH3 domain and tetratricopeptide repeats 1) resulted in: cell gain with vemurafenib 0.69; lactate per cell with vemurafenib 1.08; inactive.
After knock-down of PUSL1 (pseudouridine synthase like 1) the results were cell gain with vemurafenib 0.58; lactate per cell with vemurafenib 1.13; inactive.
Knock-down of PSMG1 (proteasome assembly chaperone 1) resulted in: cell gain with vemurafenib 0.77; lactate per cell with vemurafenib 0.86; inactive.
After knock-down of ALKAL1 (ALK and LTK ligand 1), the record shows cell gain with vemurafenib 0.99; lactate per cell with vemurafenib 0.8; inactive.
SLC27A6 scored cell gain with vemurafenib 0.41; lactate per cell with vemurafenib 0.68; inactive.
Depletion of FGF14 (fibroblast growth factor 14) gave: cell gain with vemurafenib 0.28; lactate per cell with vemurafenib 1.25; inactive.
Against IL7R (interleukin 7 receptor) the deposit lists cell gain with vemurafenib 0.91; lactate per cell with vemurafenib 0.56; inactive.
Depletion of PAN3 (poly(A) specific ribonuclease subunit PAN3) came out at: cell gain with vemurafenib 1.06; lactate per cell with vemurafenib 0.57; inactive.
Against GNRH2 (gonadotropin releasing hormone 2), the values are cell gain with vemurafenib 0.58; lactate per cell with vemurafenib 1; inactive.
Knock-down of POLM (DNA polymerase mu) resulted in: cell gain with vemurafenib 0.7; lactate per cell with vemurafenib 1.04; inactive.
After knock-down of DNAAF11 (dynein axonemal assembly factor 11), the screen gave cell gain with vemurafenib 1.35; lactate per cell with vemurafenib 0.54; inactive.
ADAMTS17 (ADAM metallopeptidase with thrombospondin type 1 motif 17) showed cell gain with vemurafenib 0.26; lactate per cell with vemurafenib 1.25; inactive.
CLDN1 (claudin 1) scored cell gain with vemurafenib 0.21; lactate per cell with vemurafenib 1.18; inactive.
Against PDSS2 (decaprenyl diphosphate synthase subunit 2), the values are cell gain with vemurafenib 0.85; lactate per cell with vemurafenib 1.46; inactive.
IL17C (interleukin 17C) gave cell gain with vemurafenib 0.66; lactate per cell with vemurafenib 0.93; inactive.
With knock-down of DYSF (dysferlin), the record shows cell gain with vemurafenib 0.71; lactate per cell with vemurafenib 2.13; inactive.
Depletion of SLC25A46 came out at: cell gain with vemurafenib 0.85; lactate per cell with vemurafenib 0.74; inactive.
EML3 (EMAP like 3) gave cell gain with vemurafenib 0.82; lactate per cell with vemurafenib 0.86; inactive.
ATG5 (autophagy related 5) showed cell gain with vemurafenib 0.35; lactate per cell with vemurafenib 1.3; inactive.
With knock-down of KCNH8 (potassium voltage-gated channel subfamily H member 8) the results were cell gain with vemurafenib 0.62; lactate per cell with vemurafenib 0.06; active.
KCNH8 (potassium voltage-gated channel subfamily H member 8) scored cell gain with vemurafenib 0.79; lactate per cell with vemurafenib 0.32; active.
For KRTDAP (keratinocyte differentiation associated protein), the values are cell gain with vemurafenib 0.74; lactate per cell with vemurafenib 0.89; inactive.
Against TOX2 (TOX high mobility group box family member 2), the entry reads cell gain with vemurafenib 1.03; lactate per cell with vemurafenib 0.78; inactive.

Part of the list above in another layout.
EML3 (EMAP like 3)
- cell gain with vemurafenib: 0.82
- lactate per cell with vemurafenib: 0.86
- outcome: inactive

ATG5 (autophagy related 5)
- cell gain with vemurafenib: 0.35
- lactate per cell with vemurafenib: 1.3
- outcome: inactive

KCNH8 (potassium voltage-gated channel subfamily H member 8)
- cell gain with vemurafenib: 0.62
- lactate per cell with vemurafenib: 0.06
- outcome: active

KCNH8 (potassium voltage-gated channel subfamily H member 8)
- cell gain with vemurafenib: 0.79
- lactate per cell with vemurafenib: 0.32
- outcome: active

KRTDAP (keratinocyte differentiation associated protein)
- cell gain with vemurafenib: 0.74
- lactate per cell with vemurafenib: 0.89
- outcome: inactive

TOX2 (TOX high mobility group box family member 2)
- cell gain with vemurafenib: 1.03
- lactate per cell with vemurafenib: 0.78
- outcome: inactive
